The results in this text go back to PubChem BioAssay AID2685 (National Center for Advancing Translational Sciences (NCATS), 2010).

Some of the results follow. Shown are side measurements of this screen, not its main read-out; they come without a call. Most of these compounds were active or inconclusive in the main read-out, so they are no random draw. The note in brackets gives the kind of curve behind each potency; many fits are weak.

The experiment can be described thus: qHTS Assay for Lipid Storage Modulators in Drosophila S3 Cells.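 For cell number change: cells counted by Cell Tracker Red CMTPX staining in the red channel.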 The conditions noted are these: BODIPY lipid droplet fluorescence, 18-24 h; for cell number change: measured here: cell count max response, cells fed with added oleic acid. In a few lines:
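Drosophila S3 cells got compounds at several concentrations plus oleic acid (400 uM solution). Laser-scanning cytometry with 488 nm excitation read lipid droplets at 500-530 nm and cells at 575-640 nm. Percent activity was relative to 20 uM Triacsin C.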
A general note: Quantitative high-throughput screening tests each substance at several concentrations.

Where [1] appears, read: measured here: lipid fluorescence (Fed channel) AC50, cells fed with added oleic acid.
[2] abbreviates: measured here: cell number channel AC50, cells fed with added oleic acid.

Consider `Cc1c(S(=O)(=O)c2ccccn2)c(N)n(Cc2cccc(Cl)c2)c1C`, for which the cell number change came to 2.84%.

The AC50 is the concentration at which the activity in the assay is half-maximal. The low end stands for greater potency, the high end for weaker potency. As to `CN(C)S(=O)(=O)c1cccc(NC(=O)CCCSc2ccccc2)c1`, the cell number change is 2.1%. For the same compound, the AC50 under setting [1] was 6.51 µM [rising, single point].

For `Cc1ccc(Nc2nc(-c3sc(NC(=O)c4cccc(Cl)c4)nc3C)cs2)cc1`, the cell number change was -36%. The AC50 under setting [2] is 1.3 µM [falling, full curve, poor fit].

Turning to `COc1ccc(/C(N)=N/OC(=O)CC2CCCCC2)cc1`, the cell number change stood at 15%. Moreover, under setting [1], the AC50 is 14.6 µM [rising, partial curve].

Turning to `COc1ccc(-n2c(=S)[nH]c3cc(C(=O)NCc4ccccc4OC)ccc3c2=O)c(OC)c1`, the cell number change is 7.92%. In addition, the AC50 under setting [1] is 0.00517 µM [rising, full curve, poor fit].

Consider `CCCCCCCCS(=O)c1sc2nc(C)cc(C)c2c1N` (stereo unspecified), for which, under setting [2], the AC50 is 0.291 µM [rising, partial curve, poor fit].

For the compound `Cc1cc2ncn(CC(O)COc3cccc(C(=O)O)c3)c2cc1C` (stereo unspecified), the cell number change was found to be 6.05%. Moreover, the AC50 under setting [1] was 1.64 µM [rising, partial curve, poor fit].

In the case of `COC(=O)c1cccc(NC(=O)CN2C(=O)C3CCCCC3C2=O)c1` (stereo unspecified), the cell number change worked out at 1.61%.

For the compound `COc1ccc(OC)c2sc(N(CCCN(C)C)C(=O)c3ccc(S(=O)(=O)N4CCc5ccccc5C4)cc3)nc12`, the cell number change was -77.2%. The AC50 under setting [2] was 3.66 µM [falling, full curve]. Moreover, the AC50 under setting [1] is 0.517 µM [falling, partial curve, poor fit].

For the compound `O=C(CS(=O)(=O)c1ccccc1)c1ccc2c(c1)OCCO2`, the cell number change was -26%. Also, the AC50 under setting [1] is 23.1 µM [rising, single point].

As for `CCC(=O)O/N=C(\N)c1ccc(Oc2cc(C)c(Cl)c(C)c2)c([N+](=O)[O-])c1`, the cell number change came out at 19%. Also, the AC50 under setting [1] is 32.6 µM [falling, single point].

Take `O=C(c1cc(=O)c2ccccc2o1)N1CCN(c2cccc(Cl)c2)CC1`: the cell number change was 122%. Also, the AC50 under setting [2] was 23.1 µM [rising, single point]. The AC50 under setting [1] was 0.206 µM [rising, full curve, poor fit].

With `CC(C)CCn1c(SCCN2CCOCC2)nc2c1c(=O)[nH]c(=O)n2C`, the cell number change came to 62.8%. For the same compound, under setting [2], the AC50 was 18.4 µM [rising, partial curve, poor fit].

As to `CN(C(=O)CC(NC(=O)c1ccccc1Cl)c1ccccc1)c1ccccc1` (stereo unspecified), the cell number change was 31.5%. Besides, the AC50 under setting [2] is 0.116 µM [rising, full curve]. The AC50 under setting [1] was 0.0651 µM [rising, full curve, poor fit].

With `CC(C)Oc1ccc(C(=O)Nc2ccc(N3CCN(C(=O)c4ccco4)CC3)cc2)cc1`, the cell number change turned out to be 3.6%.

For the compound `CN1CCN(CCCc2c3c(cc4c2CCC4)CCC3)CC1`, the cell number change was 63.6%. In addition, the AC50 under setting [2] is 18.4 µM [rising, single point]. For the same compound, the AC50 under setting [1] is 6.51 µM [falling, single point].

Regarding `CN1CCN(C(=S)Nc2cc(S(=O)(=O)N3CCOCC3)ccc2Cl)CC1`, the cell number change is -3.11%. Moreover, the AC50 under setting [2] is 0.731 µM [falling, full curve, poor fit]. Moreover, under setting [1], the concentration at half-maximal activity (AC50) is 0.517 µM [falling, full curve].

`CC(C)c1onc(C(=O)Nc2cccnc2Cl)c1[N+](=O)[O-]`: the cell number change amounted to 20.5%. The AC50 under setting [2] was 0.259 µM [falling, partial curve, poor fit].

Turning to `S=c1nc[nH]c2c1[nH]c1ccc(Cl)cc12`, the cell number change amounted to 21.4%. For the same compound, under setting [1], the AC50 is 2.06 µM [rising, full curve].

In the case of `O=C(NCCc1c[nH]c2ccccc12)C1CCN(S(=O)(=O)c2ccccc2)CC1`, the cell number change was -22.5%.

Regarding `O=C1CCCN1C(=O)CSc1ccc2ccccc2n1`, the cell number change was 8.4%. For the same compound, the AC50 under setting [2] is 1.64 µM [falling, partial curve]. Besides, the AC50 under setting [1] is 1.3 µM [falling, partial curve].

Turning to `COc1cccc(NC(=O)Cn2c(=O)n(C)c(=O)c3sc4c(c32)COC(C)(C)C4)c1`, the cell number change is -58.1%. Besides, under setting [2], the AC50 was 23.1 µM [falling, single point]. In addition, the AC50 under setting [1] was 29.1 µM [falling, single point].

On to `C=CCn1c(SCC(=O)NCC)nc2sc3c(c2c1=O)CCC3`, for which the cell number change was -26.9%. Under setting [2], the AC50 is 0.82 µM [falling, full curve, poor fit]. Further, the AC50 under setting [1] is 6.51 µM [rising, single point].

Consider `CC(/C=N/NC(=O)C(O)c1ccccc1)=C\c1ccccc1` (stereo unspecified), for which the cell number change is -36.9%. Moreover, under setting [2], the AC50 is 29.1 µM [falling, single point]. Moreover, under setting [1], the AC50 was 20.6 µM [falling, partial curve].

In the case of `Cc1cc(Cn2nc(-c3ccccc3)cc2C(=O)NCc2cccs2)on1`, the cell number change is -3.17%. The AC50 under setting [1] is 20.6 µM [falling, single point].

For the compound `COCCn1c(SCC(=O)NC2CCCC(C)C2C)nc2ccccc2c1=O` (stereo unspecified), the cell number change was found to be 25%.

Consider `Cn1c(=O)n(C)c2cc([N+](=O)[O-])c(N3CCN(C(=O)c4ccc(F)cc4)CC3)cc21`, for which the cell number change was found to be 73.8%. In addition, under setting [2], the AC50 was 6.51 µM [falling, single point]. Also, the AC50 under setting [1] was 6.51 µM [falling, single point].

Regarding `COc1ccc(Cl)cc1NC(=O)CCNC(=O)Cn1ccc2ccccc2c1=O`, the cell number change was 38.5%. Besides, the AC50 under setting [1] was 18.4 µM [rising, single point].

Take `COc1ccccc1C(=O)NC(=S)Nc1ccc(Cc2ccncc2)cc1`: the cell number change was -58.9%. Also, under setting [2], the AC50 was 7.31 µM [falling, partial curve]. Also, the AC50 under setting [1] is 7.31 µM [falling, partial curve].

With `CN1CCN(C(=O)c2cc3c(ccc4ccccc43)oc2=O)CC1`, the cell number change is -30.1%. For the same compound, the AC50 under setting [2] was 23.1 µM [falling, partial curve].

Regarding `Cc1nc(SCC(=O)c2ccc(F)cc2)n[nH]1`, the cell number change was found to be 6.59%. The AC50 under setting [1] is 0.103 µM [rising, full curve, poor fit].

As to `O=C(CCCCCCCCN1C(=O)c2ccccc2C1=O)N1CCOCC1`, the cell number change worked out at 12.4%.

Turning to `CC(C)C(NC(=O)c1ccccc1)C(=O)NCCc1ccccc1` (stereo unspecified), the cell number change turned out to be 39.1%. Besides, the AC50 under setting [2] is 10.3 µM [rising, single point]. Further, the AC50 under setting [1] was 0.0058 µM [falling, full curve, poor fit].

Turning to `Cc1ccc(NC(=O)CSc2n[nH]c(-c3ccco3)n2)c(C)c1`, the cell number change worked out at 21.1%. For the same compound, the AC50 under setting [1] is 13 µM [rising, partial curve].

Consider `O=C(/C=C/c1ccc(-c2ccccc2[N+](=O)[O-])o1)c1ccc(F)cc1`, for which the cell number change is -23.6%. In addition, under setting [1], the AC50 was 8.2 µM [falling, partial curve, poor fit].

For the compound `O=S(=O)(c1ccccc1)N1CCC2(CC1)OCCN2S(=O)(=O)c1cccs1`, the cell number change was found to be 111%. Further, the AC50 under setting [2] is 16.4 µM [rising, partial curve].

For `COc1cccc(-c2nc(CS(=O)(=O)CC(=O)NCCCc3ccccc3)c(C)o2)c1`, the cell number change was 43.7%. The AC50 under setting [2] is 23.1 µM [rising, single point]. Also, under setting [1], the AC50 was 0.291 µM [falling, full curve].

`CCCOC(=O)C1=C(C)NC2=C(C(=O)CCC2)C1c1cccs1` (stereo unspecified): the cell number change is -0.129%.

In the case of `CCCCN(C)S(=O)(=O)c1c(C)[nH]c(=O)[nH]c1=O`, the cell number change was -17.6%. The AC50 under setting [1] is 0.13 µM [falling, full curve, poor fit].

Take `CCOc1ccc(NC(=S)Nc2cccc3ccccc23)cc1`: the cell number change was -6.9%. The AC50 under setting [1] was 35.5 µM [rising, single point].

Take `CCOC(=O)c1sc(NC(=O)CSc2nc3c(c(=O)n2-c2ccc(F)cc2)SCC3)c(C(=O)OCC)c1C`: the AC50 by setting is: under setting [2], 6.51 µM [rising, single point]; under setting [1], 1.46 µM [rising, partial curve].

For `C=CC[N+]1(CC#Cc2ccccc2)CCCC1`, the cell number change is -5.31%. Further, the AC50 under setting [1] was 1.46 µM [rising, partial curve].

Turning to `CC(=O)NC1(C(F)(F)F)NC(=O)N(c2ccc(F)cc2)C1=O` (stereo unspecified), the cell number change is -29%. Besides, the AC50 under setting [2] is 0.92 µM [falling, full curve, poor fit]. Under setting [1], the AC50 is 4.11 µM [falling, full curve].

Consider `CCOC(=O)N1CCC(Nc2nc3ccccc3n3nnnc23)CC1`, for which the cell number change was -11.7%. Under setting [1], the AC50 is 1.03 µM [rising, single point].

Consider `COC(=O)c1ccc(C2/C(=C(/O)c3ccc4c(c3)CC(C)O4)C(=O)C(=O)N2CCN2CCOCC2)cc1` (stereo unspecified), for which the cell number change was found to be 19%. Further, the AC50 under setting [1] is 0.0731 µM [rising, full curve, poor fit].

As for `Cn1cc(SCC(=O)Nc2nc3ccccc3s2)c2ccccc21`, under setting [2], the AC50 is 0.0731 µM [rising, full curve, poor fit].

For the compound `COC(=O)COc1ccc(C2NC(=O)NC(C)=C2C(=O)NCc2ccccc2)cc1OC` (stereo unspecified), the cell number change was 65.9%. For the same compound, the AC50 under setting [1] is 29.1 µM [rising, single point].

As for `CC(=O)c1cccc(NC(=O)c2ccc(-c3ccccc3[N+](=O)[O-])o2)c1`, the cell number change is -1.22%. Also, the half-maximal activity concentration (AC50) under setting [1] was 0.146 µM [rising, full curve, poor fit].

`Cc1c(OCc2ccccc2)cccc1OCc1ccccc1`: the cell number change is -4.26%. The AC50 under setting [1] was 0.82 µM [rising, full curve, poor fit].

As for `O=C(NNC(=O)c1cc(-c2ccc(Cl)cc2)nc2ccccc12)c1csc(N2CCOCC2)n1`, the cell number change was 16.3%. Under setting [1], the AC50 was 29.1 µM [rising, single point].

`O=C(COC(=O)c1ccc(S(=O)(=O)N2CCCC2)cc1)NCc1ccc(Cl)cc1`: the cell number change was -11.6%. The AC50 under setting [2] is 2.31 µM [falling, partial curve]. Moreover, the AC50 under setting [1] is 18.4 µM [falling, partial curve].

With `COc1ccccc1N1CCN(C(=O)C(C)NC(=O)c2cccc([N+](=O)[O-])c2)CC1` (stereo unspecified), the cell number change came to 16.2%. Under setting [1], the AC50 is 29.1 µM [falling, single point].

With `CCc1ccc2c(CC(=O)Nc3cccc(S(=O)(=O)N4CCOCC4)c3)coc2c1`, the cell number change is -8.67%. Besides, the AC50 under setting [1] was 3.26 µM [falling, single point].

Consider `CC(c1ccccc1)N(C)CC(=O)NC(=O)NCCC1=CCCCC1` (stereo unspecified), for which the cell number change was -4.93%. Under setting [1], the AC50 is 1.84 µM [rising, partial curve].

In the case of `CCC(C)NC(=O)Nc1ccccc1C` (stereo unspecified), the AC50 is 0.103 µM [rising, single point] under setting [2] and 5.8 µM [rising, partial curve] under setting [1].
